This test in a line: qHTS Assay for Lipid Storage Modulators in Drosophila S3 Cells.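 For cell number change: cells counted by Cell Tracker Red CMTPX staining in the red channel.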 To be noted: BODIPY lipid droplet fluorescence, 18-24 h; for cell number change: measured here: cell count max response, cells fed with added oleic acid. The procedure, abridged: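 Drosophila S3 cells got compounds at several concentrations plus oleic acid (400 uM solution). Laser-scanning cytometry with 488 nm excitation read lipid droplets at 500-530 nm and cells at 575-640 nm. Percent activity was relative to 20 uM Triacsin C.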

Where [1] appears, read: measured here: lipid fluorescence (Fed channel) AC50, cells fed with added oleic acid.
Setting [2] is: measured here: cell number channel AC50, cells fed with added oleic acid.

The other results are listed elsewhere or left out. These are further read-outs of the screen, such as a control signal, another cell line or another target. No call is given for them. Compounds called inactive in the main read-out are mostly missing here. Words in brackets tell the shape of the fitted curve; partial curves, single points and poor fits give uncertain potencies.

Turning to `O=C(CNC(=O)c1ccccc1F)c1ccccc1`, the cell number change turned out to be 6.3%. Also, the half-maximal activity concentration (AC50) under setting [1] is 29.1 µM [rising, single point].

As for `CCOc1cc(N2CCOCC2)c(OCC)cc1NC(=O)COC(=O)c1cc(C)cc(C)c1`, the cell number change came to 6.45%. In addition, the AC50 under setting [1] is 0.231 µM [rising, full curve, poor fit].

With `Cc1ccc(S(=O)(=O)N2CCCCC2)cc1`, the cell number change was determined as 3.75%. In addition, the AC50 under setting [1] is 0.13 µM [falling, full curve, poor fit].

With `Cc1cc(C)n(-c2nc3ccccc3nc2N2CCN(C(=O)c3ccc(Cl)cc3)CC2)n1`, the cell number change turned out to be 4.01%. The AC50 under setting [1] was 8.2 µM [rising, partial curve].

As to `Cc1c(F)cccc1NC(=O)c1ccc2c(c1)CCN2S(C)(=O)=O`, the cell number change is -1.69%. Moreover, under setting [1], the AC50 is 29.1 µM [falling, single point].

For `O=C(c1ccc(F)cc1)N(Cc1ccccc1)C1CCS(=O)(=O)C1` (stereo not given), the cell number change was 4.64%.

In the case of `O=C(Nc1cccc2cccnc12)c1cccc(Cl)c1`, the cell number change is -21.5%.

Turning to `CCCCc1ccc(NC(=S)NCc2cccc(OC)c2)cc1`, the cell number change was -17.3%. The AC50 under setting [1] is 25.9 µM [falling, partial curve, poor fit].

Regarding `COc1ccccc1N1CCN(C(=O)Cn2nnc(-c3cccs3)n2)CC1`, the cell number change was 93.2%. Under setting [2], the AC50 is 10.3 µM [rising, partial curve]. Further, the AC50 under setting [1] was 5.8 µM [rising, partial curve].

Take `O=C(CSc1n[nH]c(-c2cc(Cl)ccc2Cl)n1)NCCN1C(=O)CSC1=O`: the AC50 under setting [1] is 13 µM [falling, partial curve].

For `CN(C)c1nc(N)nc(CSc2ncc(Cl)cc2Cl)n1`, the cell number change was -53.9%. For the same molecule, the AC50 under setting [2] is 14.6 µM [falling, partial curve, poor fit].

For the molecule `Cc1ccc(NCC(=O)N/N=C/c2cc(O)ccc2[N+](=O)[O-])cc1`, the cell number change was 10.3%. The AC50 under setting [2] is 0.092 µM [rising, partial curve, poor fit].

Regarding `COC(=O)c1cccc(NC(=O)CSc2nnc(-c3ccco3)o2)c1`, the cell number change is -7.39%.

Take `Fc1ccc(CSc2ccc3nnc(-c4cccnc4)n3n2)cc1`: the cell number change is -69.1%. Under setting [2], the AC50 was 29.1 µM [falling, single point].

In the case of `CC(NCC(=O)Nc1ccccc1C(=O)NC1CC1)c1cccc(Cl)c1` (stereo not given), the cell number change is -20%.

On to `Cc1cc(C)c(S(=O)(=O)N2CCCC2=O)c(C)c1N(C)S(C)(=O)=O`, for which the cell number change was determined as 8.42%. Also, the AC50 under setting [1] was 0.82 µM [falling, single point].

Regarding `COc1ccccc1C(=O)Nc1nnc(S(=O)(=O)N2CCC(C)CC2)s1`, the cell number change is -9.48%. For the same molecule, under setting [1], the AC50 is 8.2 µM [falling, partial curve, poor fit].

With `Cc1ccc2c(Cl)cc(Cl)c(OCC(=O)Nc3cccc(S(=O)(=O)N(C)C)c3)c2n1`, the cell number change was 29.5%. Moreover, under setting [1], the AC50 is 1.84 µM [rising, full curve].

Regarding `COc1cc(C(=S)N2CCOCC2)cc(OC)c1OC(=O)c1ccccc1[N+](=O)[O-]`, the cell number change was -32.5%. In addition, the AC50 under setting [2] was 6.51 µM [falling, partial curve].

As to `Cc1ccc(-c2csc(NC(=O)c3ccco3)n2)cc1C`, the cell number change is -1.35%.

`CCOc1ccccc1C(=O)Nc1cccc2ccccc12`: the cell number change is -18.3%.

For `CC(C)C(=O)N=c1sc2cc(F)cc(F)c2n1C`, the cell number change stood at 4.75%. In addition, the AC50 under setting [1] was 4.11 µM [rising, full curve, poor fit].

`CC(C)(C)N(Cc1ccccc1)C(=O)c1ccc(Cl)cc1[N+](=O)[O-]`: the cell number change was determined as 18.8%.

Regarding `CCCCn1c(N2CCCC2)nc2c1c(=O)[nH]c(=O)n2C`, the cell number change is -12.5%.

As for `Cc1ccccc1C(=O)Nc1cccc(NC(=O)c2cccnc2)c1`, the cell number change came to 4.27%. For the same molecule, the AC50 under setting [1] was 6.51 µM [rising, partial curve].

For the molecule `Cc1ccccc1-n1ccnc1SCC(=O)O`, the cell number change turned out to be 1.39%. Under setting [1], the AC50 was 0.184 µM [falling, full curve, poor fit].

Regarding `Cc1ccc2c(c1)c1ncnc(N3CCC4(CC3)OCCO4)c1n2C`, the cell number change came to 9.95%. Besides, the AC50 under setting [1] is 2.06 µM [rising, full curve].

As to `Brc1ccc(OCc2ccccc2)c(CNCC2CCCO2)c1` (stereo not given), the cell number change was determined as 11.4%.

In the case of `CCC(Sc1nc2sc(C(=O)OC)c(C)c2c(=O)n1N)C(=O)N(CC)CC` (stereo not given), the cell number change is 44.4%. Also, under setting [2], the AC50 is 29.1 µM [rising, single point].

On to `COc1ccc(C(=O)NCCc2cc3c(OC)ccc(OC)c3[nH]c2=O)cc1OC`, for which the cell number change is -9.58%. Also, the AC50 under setting [1] is 0.058 µM [falling, full curve, poor fit].

As to `COc1ccc(N2CC(C(=O)Nc3nc4ccccc4s3)CC2=O)cc1` (stereo not given), the cell number change was 19.7%. Moreover, the AC50 under setting [1] is 29.1 µM [rising, single point].

On to `Nn1c(SCc2ccccc2F)nnc1-c1cccnc1`, for which the cell number change stood at 17.9%. Besides, the AC50 under setting [1] was 32.6 µM [rising, single point].

Take `CN(C(=O)c1cnc(N2CCN(c3ncccn3)CC2)c2ccccc12)c1ccc(Cl)cc1`: the cell number change came to 1.04%. The AC50 under setting [1] is 0.0651 µM [falling, full curve, poor fit].

`COc1ccc(N(CC(=O)NC(C)C)S(=O)(=O)c2ccc(NC(C)=O)cc2)cc1`: the cell number change is 58.3%. Moreover, the AC50 under setting [2] is 18.4 µM [rising, single point].

As for `COc1ccc(/C=C/C(=O)Nc2cc(S(=O)(=O)N3CCCCC3)ccc2N2CCCCC2)cc1OC`, the cell number change came to 79.1%. Besides, the AC50 under setting [2] is 29.1 µM [rising, single point]. Under setting [1], the AC50 was 3.66 µM [falling, partial curve].

Regarding `CCOC(=O)N1CCN(C(=O)CS(=O)Cc2nc(-c3ccc(C)cc3)oc2C)CC1` (stereo not given), the cell number change is 10.6%. Besides, under setting [2], the AC50 is 2.59 µM [rising, partial curve]. Besides, under setting [1], the AC50 was 6.51 µM [rising, single point].

With `COC(=O)CN1C(=S)N(c2ccc(OC)cc2)C(=O)/C1=C/c1cccs1`, the cell number change is -33.5%. Further, the AC50 under setting [2] was 11.6 µM [falling, partial curve]. In addition, the AC50 under setting [1] is 2.31 µM [falling, full curve].

As for `O=C(COC(=O)c1ccccc1C(=O)c1ccc(Cl)cc1)NCCc1ccccc1`, the cell number change is -21.8%. Under setting [1], the AC50 was 20.6 µM [falling, single point].

Take `CCC(=O)N1CCc2cc(S(=O)(=O)NC(Cc3ccccc3)C(=O)O)ccc21` (stereo not given): the cell number change came to 16.5%. For the same molecule, the concentration at half-maximal activity (AC50) under setting [2] was 0.082 µM [rising, full curve].

For the molecule `CC(=O)Oc1cccc(C2C3=C(CC(C)(C)CC3=O)Nc3ccccc3N2C(C)=O)c1` (stereo not given), the cell number change was 8.03%. Moreover, under setting [1], the AC50 is 29.1 µM [rising, single point].

As to `O=C(C1CCCN(C2CC(=O)N(c3ccc(Cl)cc3)C2=O)C1)N1CCCC1` (stereo not given), the cell number change amounted to 0.867%. The AC50 under setting [1] is 0.0651 µM [rising, partial curve].

For the molecule `Cn1nc(C(=O)NCCCN2CCCCC2)c2c1-c1ccccc1SC2`, the cell number change is 16.4%. For the same molecule, the half-maximal activity concentration (AC50) under setting [1] is 29.1 µM [rising, single point].

Regarding `Nc1cc(=O)[nH]c(SCC(=O)N2CCCCC2)n1`, the cell number change is 3.72%. Further, under setting [1], the half-maximal activity concentration (AC50) was 25.9 µM [rising, single point].

Take `CCOc1ccc(CN(C)C(=O)c2ccc3c(c2)NC(=O)C(C)S3)cc1OC` (stereo not given): the cell number change was -11.8%. Further, the AC50 under setting [1] is 9.2 µM [falling, single point].

On to `O=C1C2C3c4ccccc4C(c4ccccc43)[C@@H]2c2nc3ccccc3n21` (stereo not given in full), for which the cell number change amounted to 149%. Also, under setting [2], the AC50 is 6.51 µM [falling, single point]. Also, the AC50 under setting [1] was 4.61 µM [falling, single point].

Regarding `O=c1c2c3c(sc2ncn1/N=C/c1cccnc1)CCCC3`, the cell number change was determined as 102%. In addition, the AC50 under setting [2] was 25.9 µM [rising, partial curve].

Consider `COC(=O)c1sccc1NC(=O)Nc1ccc(F)cc1F`, for which the cell number change was -18.8%. Also, the AC50 under setting [1] was 0.58 µM [rising, single point].

With `COc1cc(N/C=C2\CC(=O)NC(C)=C2C#N)cc(OC)c1OC`, the cell number change was determined as 7.69%.

Regarding `CCC(c1nnnn1Cc1ccc(OC)cc1)N(CCCO)Cc1cc2cc3c(cc2[nH]c1=O)OCO3` (stereo not given), the cell number change was 41.9%. Besides, the AC50 under setting [2] was 5.8 µM [rising, full curve, poor fit]. The half-maximal activity concentration (AC50) under setting [1] is 5.8 µM [rising, partial curve, poor fit].

As to `COc1ccccc1CNC(=O)c1sccc1C`, the cell number change was -18.1%. The AC50 under setting [1] was 6.51 µM [rising, partial curve, poor fit].

Take `COc1ccccc1NC(=O)NC1(C(=O)NCC2CCCO2)CCCCC1` (stereo not given): the cell number change amounted to 22.7%.

Take `CCCn1c(SCC(=O)Nc2nc(-c3ccc(OC)cc3)cs2)nc2c1c(=O)n(C)c(=O)n2C`: the cell number change stood at 0.3%. Also, the AC50 under setting [1] is 1.3 µM [rising, partial curve, poor fit].

Regarding `O=C(COC(=O)C1(c2ccc(F)cc2)CCCC1)Nc1ncc(C(F)(F)F)cc1Cl`, the cell number change is -5.48%. Further, under setting [1], the AC50 was 20.6 µM [falling, single point].

As for `COc1ccc(Nc2nc(N)nc(CSc3nnc(N)s3)n2)cc1`, the cell number change was 8.61%. The AC50 under setting [1] is 0.58 µM [falling, single point].

Consider `COC(=O)c1ccc(/C=C/c2c(-c3ccc(OC)cc3)oc3ccc(N4CCOCC4)cc23)cc1`, for which the cell number change is -53.1%. Besides, the AC50 under setting [2] was 16.4 µM [falling, partial curve].

As to `CCC(=O)c1ccc(OC(=O)Cc2ccc(OC)cc2)cc1`, the cell number change is 16.7%. Moreover, the AC50 under setting [1] was 29.1 µM [rising, single point].

`Cc1oc2cc3oc(=O)c(CCC(=O)NC4CC4)c(C)c3cc2c1C`: the cell number change is -12.6%.

As to `COCCNC(=O)c1ccc(N2CC3CC(C2)c2cccc(=O)n2C3)c(NC(=O)c2ccc(Br)o2)c1` (stereo not given), the AC50 under setting [1] is 1.46 µM [falling, full curve, poor fit].

Consider `O=C(c1ccccc1)N1N=C(c2ccc(F)cc2)CC1(O)C(F)(F)F` (stereo not given), for which the cell number change was -31.1%. For the same molecule, the AC50 under setting [2] is 32.6 µM [falling, single point].

`O=C(c1ccc(N2CCN(C(=O)c3cccc(F)c3)CC2)cc1)c1cccc(F)c1`: the cell number change came to 18.4%. Also, under setting [1], the AC50 is 1.64 µM [rising, partial curve].

In the case of `CCc1ccc(NC(=O)CCc2c(C)nn(-c3ccc(N4CCOCC4)nn3)c2C)cc1`, the AC50 under setting [1] was 29.1 µM [falling, single point].

In the case of `CCCCn1c(N)c(N(C)C(=O)c2ccccc2Oc2ccccc2)c(=O)[nH]c1=O`, the cell number change was 0.71%. Moreover, the AC50 under setting [1] was 0.00731 µM [rising, full curve, poor fit].

For the origin of these results see PubChem BioAssay AID2685 (National Center for Advancing Translational Sciences (NCATS), 2010).
